# Test results taken from PubChem BioAssay AID445 (National Center for Advancing Translational Sciences (NCATS), 2006).
# The other results are listed elsewhere or left out. The main result of the screen is listed elsewhere. These columns were measured beside it and carry no call. Most of these compounds were active or inconclusive in the main read-out, so they are no random draw. The note in brackets gives the kind of curve behind each potency; many fits are weak.
# Assay: IkB Signaling
# Conditions: ABC-DLBCL IkBa-CBG/CBR dual luciferase ratio (green luciferase fused to IkBa over red control in OCI-Ly3 lymphoma cells), 4 h
# Procedure, shortened: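 In this assay, an IκBα–CBG68 fusion accumulates when IKK-driven degradation is blocked; native CBR normalizes for cell number. OCI-Ly3 cells were treated 4 h with compound and doxycycline, then green and red light read after Chroma-Glo addition.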
# [1] = measured here: control luc red channel unless noted
# [2] = measured here: IkB-luc green channel
# [3] = measured here: control luc red channel
smiles,measurement,setting,value
CCC(=O)Nc1sc2c(c1C(N)=O)CCC2,AC50,[1],"39.8 µM [falling, single point]"
COc1cccc(N2C(=O)CSC23C(=O)N(CC(=O)Nc2cc(C)ccc2C)c2ccccc23)c1 (stereo unspecified),AC50,[1],"15.8 µM [falling, partial curve]"
CCCCCCSC1=C(C#N)C(c2ccc(O)cc2)CC(=O)N1 (stereo unspecified),AC50,[2],"25.1 µM [falling, partial curve]"
same,AC50,[3],"15.8 µM [falling, partial curve]"
Cc1c(C(=O)N2CCOCC2)[nH]c2c1C(=O)CC(c1ccc(Cl)cc1)C2 (stereo unspecified),AC50,[1],"15.8 µM [falling, partial curve]"
CCOC(=O)c1cc2c(=O)n3ccccc3nc2n(Cc2ccco2)c1=NC(=O)c1cc(C)cc(C)c1,AC50,[1],"1.58 µM [falling, full curve]"
COC(=O)c1ccc(NC(=O)c2nn(C)c3c2CS(=O)(=O)c2ccccc2-3)cc1,AC50,[1],"15.8 µM [falling, partial curve]"
CCc1ccccc1NC(=O)CC(c1ccc(F)cc1)N1Cc2ccccc2C1=O (stereo unspecified),AC50,[1],"31.6 µM [falling, single point]"
COc1ccc(CCNc2nc3c(c(=O)n(C)c(=O)n3C)n2Cc2ccc(F)cc2)cc1OC,AC50,[1],"20 µM [falling, partial curve]"
COc1ccc2[nH]cc(CCNC(=O)Nc3ccccc3C)c2c1,AC50,[1],"10 µM [falling, partial curve]"
Cc1ccc2sc(N3CCN(C(=O)C4COc5ccccc5O4)CC3)nc2c1C (stereo unspecified),AC50,[1],"0.0126 µM [rising, full curve, poor fit]"
O=C(Nc1c(C(=O)N2CCN(c3ccc(F)cc3)CC2)oc2ccccc12)c1ccco1,AC50,[1],"25.1 µM [falling, single point]"
COc1ccc(NC(=O)c2c(C)oc3ccc(O)c(CN4CCN(C)CC4)c23)cc1Cl,AC50,[1],"15.8 µM [falling, partial curve]"
COc1ccc(CCNC(=O)c2ccc(CS(=O)(=O)c3ccc(C)cc3)o2)cc1OC,AC50,[1],"31.6 µM [falling, partial curve]"
COc1cc(OC)cc(-c2cc3nc(C)c(CCC(=O)O)c(C)n3n2)c1,AC50,[1],"0.398 µM [falling, full curve]"
COc1ccc(-c2cnc(SCC(=O)Nc3ccc4c(c3)OCO4)n2Cc2ccco2)cc1,AC50,[1],"7.94 µM [falling, partial curve]"
Cc1ccc(-c2nnc(Nc3ccc(C(N)=O)cc3)c3ccccc23)cc1S(=O)(=O)N1CCCCC1,AC50,[1],"3.16 µM [falling, full curve]"
Cc1cccc(-n2ccnc2SCC(=O)Nc2ccccc2C(F)(F)F)c1,AC50,[1],"6.31 µM [falling, partial curve]"
C=CCc1c(C)nc(SC)nc1Nc1ccc(C(C)=O)cc1,AC50,[1],"15.8 µM [falling, partial curve]"
CCOC(=O)Cc1ccc(NC(=O)Nc2nnc(N3CCCCC3C)s2)cc1 (stereo unspecified),AC50,[1],"25.1 µM [falling, partial curve]"
COC(=O)c1ccc(NC(=O)c2c(-c3ccccc3)c(-c3ccccc3)nn(C)c2=O)cc1,AC50,[1],"39.8 µM [falling, single point]"
O=C(Nc1ccc2c(c1)CCCN2C(=O)c1cccs1)c1ccccc1C(F)(F)F,AC50,[1],"25.1 µM [falling, single point]"
CCCN(C(=O)c1cc2c(s1)-c1ccccc1OC2)c1ccc(C(C)C)cc1,AC50,[1],"25.1 µM [falling, single point]"
CCOC(=O)c1ccc(NC(=O)Nc2cc3c(cc2N2CCCCC2)n(CC)c(=O)n3CC)cc1,AC50,[1],"6.31 µM [falling, partial curve]"
CCOC(=O)c1c(-c2ccccc2)csc1NC(=O)CSc1nnnn1C,AC50,[1],"25.1 µM [falling, single point]"
COc1ccc(Br)cc1CNCc1c(C(=O)O)c(C)n(Cc2ccccc2C)c1C,AC50,[1],"15.8 µM [falling, partial curve]"
COC(=O)c1ccc(/C(O)=C(\C#N)c2nc3ccccc3s2)cc1,AC50,[1],"0.158 µM [falling, full curve]"
Cc1cc2c(cc1S(=O)(=O)CCC(=O)N1CCN(c3ccccc3)CC1)OCC(=O)N2,AC50,[1],"3.16 µM [falling, single point]"
COc1ccc(-c2nc(-c3ccccc3OC)no2)cc1OC,AC50,[1],"10 µM [falling, partial curve]"
COc1ccc(-c2nc3scc(CCNS(=O)(=O)c4cccs4)n3n2)cc1,AC50,[2],"2.51 µM [rising, partial curve]"
same,AC50,[3],"3.16 µM [rising, partial curve]"
Cc1cccc(N2CCN(C(=O)CS(=O)(=O)Cc3nc(-c4ccccc4F)oc3C)CC2C)c1 (stereo unspecified),AC50,[1],"7.94 µM [falling, full curve]"
COc1cc(OC)c(NC(=O)CCc2nc(C3=CCN(Cc4cccc(Cl)c4)CC3)no2)cc1Cl,AC50,[1],"20 µM [falling, partial curve, poor fit]"
CCc1ccc(-n2c(=O)c3sc4ccccc4c3n(CC(=O)NC3CCCC3)c2=O)cc1,AC50,[1],"1 µM [rising, full curve]"
CCc1ccc2c(c1)c(=O)c(S(=O)(=O)c1ccc(F)cc1)cn2CC(=O)Nc1ccccc1OC,AC50,[1],"25.1 µM [falling, single point]"
Cc1ccc(NC(=O)c2oc3ccccc3c2NC(=O)C2CCCCC2)cc1,AC50,[1],"25.1 µM [falling, single point]"
Cc1ccc(NC(=O)C2CCC(CNS(=O)(=O)c3cccs3)CC2)cc1C (stereo unspecified),AC50,[1],"3.98 µM [falling, partial curve]"
CCOC(=O)C1CCN(C(=O)c2ccc(C)c(NC(=O)c3nsc4ccccc34)c2)CC1,AC50,[1],"39.8 µM [falling, partial curve]"
CCc1cccc(C)c1Nc1c(-c2cccs2)nc2ncccn12,AC50,[1],"31.6 µM [falling, single point]"
CCCCn1c(SCC(=O)Nc2ccc3c(c2)OCO3)nc2c1c(=O)n(C)c(=O)n2C,AC50,[1],"39.8 µM [falling, single point]"
CC(C)c1ccc(S(=O)(=O)NCc2nc3cccnc3n2Cc2ccc(F)cc2)cc1,AC50,[1],"31.6 µM [falling, partial curve]"

# As a short view, some entries already given.
smiles,measurement,setting,value
COc1ccc(CCNc2nc3c(c(=O)n(C)c(=O)n3C)n2Cc2ccc(F)cc2)cc1OC,AC50,[1],"20 µM [falling, partial curve]"
COc1ccc2[nH]cc(CCNC(=O)Nc3ccccc3C)c2c1,AC50,[1],"10 µM [falling, partial curve]"
Cc1ccc2sc(N3CCN(C(=O)C4COc5ccccc5O4)CC3)nc2c1C (stereo unspecified),AC50,[1],"0.0126 µM [rising, full curve, poor fit]"
